Assay [1] has as its target cynomolgus TfR-1 on reticulocytes (cynomolgus). Briefly: flow cytometry of blood from cynomolgus macaques 24 hr after TXP1 at 1.35 mg/kg, anti-hFc Alexa-647.
Assay [2] addresses recombinant cynomolgus TfR-1 (cynomolgus). Briefly: summary of ELISA and SPR.
Assay [3] has the same target. Briefly: ELISA, plate coated with recombinant cynomolgus TfR-1, detection with anti-hFc HRP and TMB.
The target is the same in assay [4]. Briefly: ELISA, plate-coated recombinant TfR-1.
Assay [5] shares this target. Briefly: ELISA, plate-coated human or cynomolgus TfR-1 (FIG. 15).
For the next assay, the target named is HSA (human) (UniProt P02768). Briefly: ELISA, plate coated with HSA (negative control), detection with anti-hFc HRP and TMB.

The chains behind the UniProt entries cited, without tags or fusion partners. Residues count along the entry.
UniProt P02768, residues 25-609: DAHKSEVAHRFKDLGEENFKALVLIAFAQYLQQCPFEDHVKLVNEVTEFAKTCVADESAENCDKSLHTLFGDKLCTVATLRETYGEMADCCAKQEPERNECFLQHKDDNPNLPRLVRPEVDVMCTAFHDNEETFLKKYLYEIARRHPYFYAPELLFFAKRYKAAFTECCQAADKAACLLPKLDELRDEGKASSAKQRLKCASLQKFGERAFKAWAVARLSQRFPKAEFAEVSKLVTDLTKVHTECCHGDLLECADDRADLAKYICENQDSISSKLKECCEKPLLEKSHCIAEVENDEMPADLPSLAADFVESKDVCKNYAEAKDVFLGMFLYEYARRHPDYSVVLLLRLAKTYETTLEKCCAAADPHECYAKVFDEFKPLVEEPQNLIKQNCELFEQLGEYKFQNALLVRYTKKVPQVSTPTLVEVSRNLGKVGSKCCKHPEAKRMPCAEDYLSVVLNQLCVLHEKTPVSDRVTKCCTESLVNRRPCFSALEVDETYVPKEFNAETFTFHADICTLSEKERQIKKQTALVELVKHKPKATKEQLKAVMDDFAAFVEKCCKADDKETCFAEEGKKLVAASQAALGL

Changes are numbered by the printed parent chain. These are yes or no findings as the source states them, for the method shown. Some binding calls cover weakened binding; strength is not graded here. Sequences can lack the tags named with a protein.

B1: TXP1 (VNAR-txp1 fused to the N-terminus of human IgG1 Fc with attenuated effector function) (Fc fusion, not shown: a dimerising Fc or GST; small tags and cut ends)
VNAR: ARVDQTPQTITKETGESLTINCVLRDSNCALSSTYWYRKKSGSTNEENISKGGRYVETVNSGSKSFSLKINDLTVEDSGTYRCNVVGTWCMSWRDVYGGGTAVTVNA
B1: the binding entry in assay [1], in assay [2], in assay [3] and in assay [4] was “binds” in each case.

B2: TXP1D1 (deimmunized variant VNAR-r2d1 fused to human IgG1 Fc) (Fc fusion, not shown: a dimerising Fc or GST; small tags and cut ends)
VNAR: B1 VNAR with I10A, N60D, S63T, Y97S, G99D, A102V
For the molecule B2, the binding result is on record as “binds” in assay [5] and “no binding (tested: about 4e-6 M)” with HSA (human).

B3: TXP1D4 (deimmunized variant VNAR-r2d4 fused to human IgG1 Fc) (Fc fusion, not shown: a dimerising Fc or GST; small tags and cut ends)
VNAR: ARVDQTPQTATKETGESLTINCVLRDSNCALSSTYWYRKKSGSTNEENISKGGRKYVETVESGSKSFSLKINDLTVEDSGTYRCNVVGTWCMSWRDVSGDGTVVTVNA
As to B3, the binding result in assay [5] is “binds”; with HSA (human) it was “no binding (tested: about 4e-6 M)”.

Source of the values: patent US20240026022A1.
